Measurements reported in the supplement of paper PMC6411743.
± gives the standard deviation of the averaged measurements. This is one part of the list.

Chains of the proteins cited; added tags and fusions are not shown. Lines headed by an entry give the natural chain unless they say otherwise; changes in a name come on top.
UniProt Q99426: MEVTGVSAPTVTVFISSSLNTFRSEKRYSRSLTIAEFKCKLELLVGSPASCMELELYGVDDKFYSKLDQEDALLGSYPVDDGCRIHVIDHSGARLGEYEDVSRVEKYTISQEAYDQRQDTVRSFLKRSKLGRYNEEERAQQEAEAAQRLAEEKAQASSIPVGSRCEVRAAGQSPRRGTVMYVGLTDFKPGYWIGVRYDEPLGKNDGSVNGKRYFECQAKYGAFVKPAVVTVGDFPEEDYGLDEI
UniProt Q9BXJ9: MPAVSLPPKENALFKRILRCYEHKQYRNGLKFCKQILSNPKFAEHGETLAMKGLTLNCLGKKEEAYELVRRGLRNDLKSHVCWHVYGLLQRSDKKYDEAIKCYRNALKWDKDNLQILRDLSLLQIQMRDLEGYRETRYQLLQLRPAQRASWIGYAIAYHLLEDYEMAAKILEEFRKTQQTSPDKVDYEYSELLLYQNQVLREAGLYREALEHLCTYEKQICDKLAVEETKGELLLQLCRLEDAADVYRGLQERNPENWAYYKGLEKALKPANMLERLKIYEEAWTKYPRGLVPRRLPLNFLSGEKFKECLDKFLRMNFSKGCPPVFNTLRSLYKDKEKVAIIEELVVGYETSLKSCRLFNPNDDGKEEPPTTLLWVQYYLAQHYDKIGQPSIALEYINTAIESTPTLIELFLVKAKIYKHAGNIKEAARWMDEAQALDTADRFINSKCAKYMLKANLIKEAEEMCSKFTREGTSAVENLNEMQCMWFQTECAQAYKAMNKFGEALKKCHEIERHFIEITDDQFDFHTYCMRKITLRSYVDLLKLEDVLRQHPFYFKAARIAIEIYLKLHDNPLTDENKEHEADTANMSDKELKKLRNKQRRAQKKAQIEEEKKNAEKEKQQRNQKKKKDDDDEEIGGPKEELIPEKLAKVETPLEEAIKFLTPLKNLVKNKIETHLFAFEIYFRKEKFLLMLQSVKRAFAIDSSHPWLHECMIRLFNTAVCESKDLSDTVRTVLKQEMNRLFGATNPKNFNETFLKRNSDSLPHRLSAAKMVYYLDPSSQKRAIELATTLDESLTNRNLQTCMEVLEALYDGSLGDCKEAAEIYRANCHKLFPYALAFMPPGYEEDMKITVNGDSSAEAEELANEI
UniProt Q9BV57: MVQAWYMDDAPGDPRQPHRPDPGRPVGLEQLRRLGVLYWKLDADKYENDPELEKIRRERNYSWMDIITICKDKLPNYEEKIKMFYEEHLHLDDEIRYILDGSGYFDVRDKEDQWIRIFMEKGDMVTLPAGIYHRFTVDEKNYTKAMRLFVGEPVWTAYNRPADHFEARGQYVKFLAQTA
UniProt Q99471, whole entry: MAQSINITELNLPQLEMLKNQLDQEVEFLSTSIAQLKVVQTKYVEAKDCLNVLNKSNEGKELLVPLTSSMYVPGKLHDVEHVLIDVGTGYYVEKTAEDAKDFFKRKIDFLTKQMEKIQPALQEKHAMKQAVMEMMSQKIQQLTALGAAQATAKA
UniProt Q9BU76: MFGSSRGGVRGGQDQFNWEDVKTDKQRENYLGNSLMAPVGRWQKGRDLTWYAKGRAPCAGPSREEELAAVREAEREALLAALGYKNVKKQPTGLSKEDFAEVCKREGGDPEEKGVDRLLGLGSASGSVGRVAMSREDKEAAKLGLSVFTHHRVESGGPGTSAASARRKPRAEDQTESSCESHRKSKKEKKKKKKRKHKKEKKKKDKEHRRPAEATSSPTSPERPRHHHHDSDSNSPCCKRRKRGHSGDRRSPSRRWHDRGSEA

Compound: Nc1nc2c(ncn2[C@@H]2O[C@H](COP(=O)(O)OP(=O)(O)OP(=O)(O)O)[C@@H](O)[C@H]2O)c(=O)[nH]1 [guanosine triphosphate]
Test: NP40-soluble protein abundance relative to vehicle (solubility fold change) (ratio); higher = more soluble protein in presence of GTP
Procedure: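 Solubility proteome profiling in Jurkat crude lysate. Lysate was treated with Mg-GTP (0.1-10 mM) for 10 min at room temperature and 3 min at 37 °C, then solubilised with 0.8% NP40 and benzonase, followed by ultracentrifugation. Proteins were quantified by TMT10 LC-MS/MS; the value is the NP40-soluble abundance relative to the NP40-processed vehicle, from 3 independent experiments.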

Target | NP40-soluble protein abundance (concentration: 0.1mM) | NP40-soluble protein abundance (concentration: 0.5mM) | NP40-soluble protein abundance (concentration: 1mM) | NP40-soluble protein abundance (concentration: 2mM) | NP40-soluble protein abundance (concentration: 4mM) | NP40-soluble protein abundance (concentration: 6mM) | NP40-soluble protein abundance (concentration: 8mM) | NP40-soluble protein abundance (concentration: 10mM)
UniProt Q99426 and related entries | 0.89 ± 0.061 | 0.918 ± 0.06 | 0.846 ± 0.062 | 0.851 ± 0.063 | 0.806 ± 0.067 | 0.822 ± 0.062 | 0.773 ± 0.078 | 0.824 ± 0.095
UniProt Q9BXJ9 and related entries | 1.03 ± 0.021 | 1.06 ± 0.018 | 0.972 ± 0.039 | 0.984 ± 0.026 | 0.982 ± 0.036 | 0.9782 ± 0.0082 | 0.955 ± 0.051 | 0.941 ± 0.065
ADI1 (UniProt Q9BV57) | 0.911 ± 0.038 | 0.912 ± 0.024 | 0.913 ± 0.071 | 0.868 ± 0.041 | 0.85 ± 0.081 | 0.873 ± 0.083 | 0.818 ± 0.08 | 0.827 ± 0.061
UniProt Q99471 and related entries | 0.952 ± 0.036 | 1 ± 0.064 | 0.933 ± 0.044 | 0.912 ± 0.034 | 0.802 ± 0.066 | 0.863 ± 0.094 | 0.837 ± 0.053 | 0.96 ± 0.01
UniProt Q9BU76 and related entries | 1.14 ± 0.13 | 1.1 ± 0.068 | 1.09 ± 0.085 | 1.13 ± 0.077 | 1.14 ± 0.012 | 1.1 ± 0.049 | 1.25 ± 0.16 | 1.24 ± 0.11
